{"source": "patent US11878986B2", "about": "“Poly heterocyclic conjugates and their pharmaceutical uses” (National Health Research Institutes, priority 2020, dated 2024)", "note": "Some results were stated once for a whole list of compounds, not compound by compound.", "data": [{"system": "human triple-negative breast cancer cells (HCC1806)", "assay": "Tumor growth inhibition in subcutaneous xenograft model, HCC1806", "format": "in vivo", "details": "s.c. xenograft in athymic nude mice; i.v. 1-5 mg/kg, once/week or twice/week for 1-3 weeks; vs vehicle control, p<0.05; FIGS. 2-6", "values": [{"smiles": "CCCCCC(=O)Nc1cccc(CN(Cc2cc(CN(Cc3ccccn3)Cc3cccc(NC(=O)CCCCC)n3)cc(OCCOCCOCCN(Cc3ccc(-c4ccccc4)cc3)C(=O)COCCOCCOCC(=O)NCc3ccc(CNC(=O)CCSSCCC(=O)N(C)[C@H](C)C(=O)O[C@@H]4CC(=O)N(C)c5cc(cc(OC)c5Cl)C/C(C)=C/C=C/[C@H](OC)[C@]5(O)C[C@@H](OC(=O)N5)[C@H](C)[C@H]5O[C@]54C)cc3)c2)Cc2ccccn2)n1", "note": "[Compound 4]", "inhibition of the growth of HCC1806 (tumor volume)": "significantly inhibited the growth"}, {"smiles": "COc1cc2cc(c1Cl)N(C)C(=O)C[C@@H](OC(=O)[C@@H](C)N(C)C(=O)CCSC(=O)c1ccc(CN(CCOCCOCCNC(=O)c3ccc(CN(CCCCOc4cc(CN(Cc5ccccn5)Cc5ccccn5)cc(CN(Cc5ccccn5)Cc5ccccn5)c4)C(=O)C4(c5ccc(Cl)cc5)CCCCC4)cc3)C(=O)C3(c4ccc(Cl)cc4)CCCCC3)cc1)[C@]1(C)O[C@@H]1[C@@H](C)[C@H]1C[C@](O)(NC(=O)O1)[C@@H](OC)/C=C/C=C(\\C)C2", "note": "[Compound 1]", "inhibition of the growth of HCC1806 (tumor volume)": "significantly inhibited the growth"}, {"smiles": "CCCCCC(=O)Nc1cccc(CN(Cc2cc(CN(Cc3ccccn3)Cc3cccc(NC(=O)CCCCC)n3)cc(OCCCCN(Cc3ccc(-c4ccccc4)cc3)C(=O)COCCOCCOCC(=O)NCc3ccc(CNC(=O)CCSSCCC(=O)N(C)[C@H](C)C(=O)O[C@@H]4CC(=O)N(C)c5cc(cc(OC)c5Cl)C/C(C)=C/C=C/[C@H](OC)[C@]5(O)C[C@@H](OC(=O)N5)[C@H](C)[C@H]5O[C@]54C)cc3)c2)Cc2ccccn2)n1", "note": "[Compound 2]", "inhibition of the growth of HCC1806 (tumor volume)": "significantly inhibited the growth"}, {"smiles": "CCCCCC(=O)Nc1cccc(CN(Cc2cc(CN(Cc3cccc(NC(=O)CCCCC)n3)Cc3ncc[nH]3)cc(OCCCCNC(=O)CCC(=O)N(CCCC(=O)OC)C3(C(=O)NCCN4CCOCC4)CCN(C(=O)OCC4C5CCc6nnn(CCOCCOCCN(Cc7ccc(C(=O)SCCC(=O)N(C)[C@H](C)C(=O)O[C@@H]8CC(=O)N(C)c9cc(cc(OC)c9Cl)C/C(C)=C/C=C/[C@H](OC)[C@]9(O)C[C@@H](OC(=O)N9)[C@H](C)[C@H]9O[C@]98C)cc7)C(=O)C7(c8ccc(Cl)cc8)CCCCC7)c6CCC54)CC3)c2)Cc2ncc[nH]2)n1", "note": "(stereo partly shown) [Compound 25]", "inhibition of the growth of HCC1806 (tumor volume)": "significantly inhibited the growth"}, {"smiles": "CCCCCC(=O)Nc1cccc(CN(Cc2cc(CN(Cc3ccccn3)Cc3cccc(NC(=O)CCCCC)n3)cc(OCCCCN(Cc3ccc(C(=O)N(CCCC(=O)OC)C4(C(=O)NCCN5CCOCC5)CCN(C(=O)OCC5C6CCc7nnn(CCOCCOCCNC(=O)CCSSCCC(=O)N(C)[C@H](C)C(=O)O[C@@H]8CC(=O)N(C)c9cc(cc(OC)c9Cl)C/C(C)=C/C=C/[C@H](OC)[C@]9(O)C[C@@H](OC(=O)N9)[C@H](C)[C@H]9O[C@]98C)c7CCC65)CC4)cc3)C(=O)C3(c4ccc(Cl)cc4)CCCCC3)c2)Cc2ccccn2)n1", "note": "(stereo partly shown) [Compound 3]", "inhibition of the growth of HCC1806 (tumor volume)": "significantly inhibited the growth"}, {"smiles": "CCCCCC(=O)Nc1cccc(CN(Cc2cc(CN(Cc3ccccn3)Cc3cccc(NC(=O)CCCCC)n3)cc(OCCCCN(Cc3ccc(C(=O)NCCOCCOCCN(Cc4ccc(C(=O)SCCC(=O)N(C)[C@H](C)C(=O)O[C@H]5CC(=O)N(C)c6cc(cc(OC)c6Cl)C/C(C)=C/C=C/[C@@H](OC)[C@@]6(O)C[C@H](OC(=O)N6)[C@@H](C)[C@H]6O[C@]56C)cc4)C(=O)C4(c5ccc(Cl)cc5)CCCCC4)cc3)C(=O)C3(c4ccc(Cl)cc4)CCCCC3)c2)Cc2ccccn2)n1", "note": "[Compound 23]", "inhibition of the growth of HCC1806 (tumor volume)": "significantly inhibited the growth"}, {"smiles": "CCCCCC(=O)Nc1cccc(CN(Cc2cc(CN(Cc3cccc(NC(=O)CCCCC)n3)Cc3ncc[nH]3)cc(OCCCCN(Cc3ccc(-c4ccccc4)cc3)C(=O)COCCOCCOCC(=O)NCc3ccc(CNC(=O)CCSSCCC(=O)N(C)[C@H](C)C(=O)O[C@@H]4CC(=O)N(C)c5cc(cc(OC)c5Cl)C/C(C)=C/C=C/[C@H](OC)[C@]5(O)C[C@@H](OC(=O)N5)[C@H](C)[C@H]5O[C@]54C)cc3)c2)Cc2ncc[nH]2)n1", "note": "[Compound 26]", "inhibition of the growth of HCC1806 (tumor volume)": "significantly inhibited the growth"}]}]}
